Results from publication PMC11898301.
Substitutions are numbered along the chain they refer to. Results are given in words; binding and its absence hold for the method and conditions named. In cells and extracts the contact can be indirect. Some entries that bind do so weakly or less than the wild type. Sequences can lack the tags named with a protein.

Sequences of proteins named here, by UniProt entry; tags and fusion partners are left off.
UniProt Q969H0: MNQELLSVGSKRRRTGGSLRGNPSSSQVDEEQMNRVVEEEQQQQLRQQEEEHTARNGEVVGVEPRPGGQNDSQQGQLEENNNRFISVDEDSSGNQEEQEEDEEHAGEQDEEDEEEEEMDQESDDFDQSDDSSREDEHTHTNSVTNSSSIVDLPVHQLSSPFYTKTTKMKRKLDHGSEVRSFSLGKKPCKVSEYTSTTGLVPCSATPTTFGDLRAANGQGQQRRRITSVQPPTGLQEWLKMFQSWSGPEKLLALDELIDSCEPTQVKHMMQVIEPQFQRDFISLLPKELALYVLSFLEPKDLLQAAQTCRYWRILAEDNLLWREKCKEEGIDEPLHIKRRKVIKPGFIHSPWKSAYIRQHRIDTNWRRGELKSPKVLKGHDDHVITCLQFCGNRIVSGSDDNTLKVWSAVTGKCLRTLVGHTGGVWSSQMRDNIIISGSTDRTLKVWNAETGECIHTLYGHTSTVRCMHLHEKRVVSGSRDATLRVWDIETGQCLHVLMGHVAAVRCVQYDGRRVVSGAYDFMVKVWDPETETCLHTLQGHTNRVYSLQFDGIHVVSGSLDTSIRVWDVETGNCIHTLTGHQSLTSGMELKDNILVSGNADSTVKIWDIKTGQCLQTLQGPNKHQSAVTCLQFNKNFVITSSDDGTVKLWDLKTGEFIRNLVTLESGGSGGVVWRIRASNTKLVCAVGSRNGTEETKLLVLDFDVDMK

Experiments:
Experiment in all cases: co-IP; 293T cells transfected with HA-PRR11 (WT, fragments or mutants) and Flag-GSK3β or Flag-FBXW7 (WT or mutants); MG132 10 μM for 6 h before collection; IP with HA or Flag antibody, Protein A/G magnetic beads, Western blot; in some panels λ-PPase added to extracts, CHIR-99021, siGSK3β or GSK3β overexpression
[1] = target: T1, HA-PRR11-1A/2A (T287A/S291A/T326A/T330A) (human) (UniProt Q96HE9)
T1 sequence: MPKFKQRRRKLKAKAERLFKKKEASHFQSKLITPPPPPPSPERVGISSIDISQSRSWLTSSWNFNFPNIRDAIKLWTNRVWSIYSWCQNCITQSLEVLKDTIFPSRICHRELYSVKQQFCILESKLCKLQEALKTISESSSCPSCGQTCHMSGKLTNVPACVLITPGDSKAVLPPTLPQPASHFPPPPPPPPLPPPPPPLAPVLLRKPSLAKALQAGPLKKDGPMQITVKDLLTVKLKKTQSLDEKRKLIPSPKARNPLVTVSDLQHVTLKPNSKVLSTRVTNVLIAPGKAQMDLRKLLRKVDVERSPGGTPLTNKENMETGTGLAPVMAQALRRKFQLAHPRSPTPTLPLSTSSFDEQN

[2] = target: T2, HA-PRR11-1D/2D (T287D/S291D/T326D/T330D) (human) (UniProt Q96HE9)
T2 sequence: T1 sequence with A287D, A291D, A326D, A330D

[3] = target: T3, HA-PRR11-2D (T326D/T330D) (human) (UniProt Q96HE9)
T3 sequence: T1 sequence with A287T, A291S, A326D, A330D

[4] = target: T4, HA-PRR11-2Δ (L325_T330del) (human) (UniProt Q96HE9)
T4 sequence: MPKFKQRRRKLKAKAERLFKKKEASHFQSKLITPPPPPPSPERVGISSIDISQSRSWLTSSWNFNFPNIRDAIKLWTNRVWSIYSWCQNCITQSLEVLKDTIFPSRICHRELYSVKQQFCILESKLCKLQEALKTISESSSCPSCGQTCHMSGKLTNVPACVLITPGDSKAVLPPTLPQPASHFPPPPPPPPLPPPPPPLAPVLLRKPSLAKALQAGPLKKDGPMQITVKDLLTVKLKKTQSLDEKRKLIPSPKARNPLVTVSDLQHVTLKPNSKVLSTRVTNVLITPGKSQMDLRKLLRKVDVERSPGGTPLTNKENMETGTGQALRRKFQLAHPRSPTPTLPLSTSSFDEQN

[5] = target: T5, HA-PRR11-WT (proline-rich 11) (human) (UniProt Q96HE9)
T5 sequence: T1 sequence with A287T, A291S, A326T, A330T

Measured: binding

Flag-FBXW7 (from UniProt Q969H0 1-707)
binds: [1] | [2] | [3] | [4] | [5]
